The other results are listed elsewhere or left out. Shown are side measurements of this screen, not its main read-out; they come without a call. Compounds called inactive in the main read-out are mostly missing here. The note in brackets gives the kind of curve behind each potency; many fits are weak.
Assay: qHTS Assay for Lipid Storage Modulators in Drosophila S3 Cells;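 on cell number change: cells counted by Cell Tracker Red CMTPX staining in the red channel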
Settings: BODIPY lipid droplet fluorescence, 18-24 h; for cell number change: measured here: cell count max response, cells fed with added oleic acid
Procedure, shortened: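 Drosophila S3 cells got compounds at several concentrations plus oleic acid (400 uM solution). Laser-scanning cytometry with 488 nm excitation read lipid droplets at 500-530 nm and cells at 575-640 nm. Percent activity was relative to 20 uM Triacsin C.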

[1] = measured here: cell number channel AC50, cells fed with added oleic acid
[2] = measured here: lipid fluorescence (Fed channel) AC50, cells fed with added oleic acid

Structure (SMILES) | cell number change | AC50 [1] | AC50 [2]
Cc1ccc(S(=O)(=O)NCCC(=O)Nc2ccc(Cl)c(Cl)c2)cc1C | -43% | 29.1 µM [falling, single point] | 18.4 µM [falling, single point]
CC1C(=O)Nc2ccccc2N1C(=O)C1CC1 (stereo not given) | -12.5% | – | 23.1 µM [rising, single point]
CCOc1ccc(Cl)cc1CNCCCSc1ncccn1 | -34.4% | 8.2 µM [falling, partial curve, poor fit] | –
O=C1CSC(c2ccc(F)cc2)N1c1c(F)cccc1F (stereo not given) | 5.79% | – | –
CCN1CCc2nc3sc(C(=O)Nc4cccnc4Cl)c(N)c3cc2C1 | -18.3% | – | 29.1 µM [falling, single point]
Cn1cccc1/C=C1\SC(=S)N(Nc2ccccc2)C1=O | 19.8% | – | 0.13 µM [rising, full curve, poor fit]
CC(=O)Nc1ccc(NC(=O)c2ccccc2CCc2ccccc2)cc1 | -32.8% | 0.731 µM [rising, single point] | 29.1 µM [falling, single point]
O=C(Nc1c(Cl)ccc2nsnc12)c1cccnc1 | 1.53% | – | 0.0206 µM [rising, full curve, poor fit]
O=C(NCc1ccccn1)C1CCN(Cc2cnn(-c3ccccc3)c2-n2cccc2)CC1 | – | – | 0.58 µM [rising, single point]
COc1ccccc1Oc1ccc(S(=O)(=O)NCc2ccccn2)cc1 | – | 0.461 µM [rising, partial curve, poor fit] | –
O=C(c1ccccc1)N1CCN(C(=O)c2ccc([N+](=O)[O-])cc2)CC1 | 0.264% | – | 1.46 µM [falling, partial curve]
CC1CCC(N2CCN(c3ncccn3)CC2)CC1 (stereo not given) | -21.9% | 1.84 µM [falling, partial curve] | 0.184 µM [falling, full curve, poor fit]
O=C(CN1CCCc2ccccc21)Nc1cc(S(=O)(=O)N2CCCC2)ccc1Cl | -10.4% | – | –
O=C(CNC(=O)c1ccco1)Nc1ccc(F)cc1 | 101% | – | –
COCCC(=O)N1CCC(Oc2ccc(C(=O)NCc3ncc(C)[nH]3)cc2)CC1 | 3.54% | – | 5.17 µM [rising, single point]
CNC(=S)N/N=C1\C(=O)c2cccc3cccc1c23 | -20.9% | – | –
O=S(=O)(NCCSc1ccccc1)c1cccs1 | -131% | 25.9 µM [falling, partial curve, poor fit] | 16.4 µM [falling, partial curve]
CC(=O)/C=C1/C(=O)Nc2ccccc21 | -20.7% | – | –
CCSc1ccccc1C(=O)NCc1ccc(OC)cc1 | 3.41% | – | 0.58 µM [rising, single point]
O=C(Nn1cnnc1)c1csc2ccccc12 | -3.04% | – | 0.58 µM [falling, full curve, poor fit]

Structural class: the compounds so far with two or more sulfur atoms (2)
Structure (SMILES) | cell number change | AC50 [1] | AC50 [2]
Cn1cccc1/C=C1\SC(=S)N(Nc2ccccc2)C1=O | 19.8% | – | 0.13 µM [rising, full curve, poor fit]
O=S(=O)(NCCSc1ccccc1)c1cccs1 | -131% | 25.9 µM [falling, partial curve, poor fit] | 16.4 µM [falling, partial curve]

Next part:

Structure (SMILES) | cell number change | AC50 [1] | AC50 [2]
CCOC(=O)N1CCN(C(=O)C(=O)NNC(=O)COc2ccc(Cl)c(C)c2)CC1 | 1.14% | – | –
N#CC1=C(N)N(c2ccccc2)C(c2ccco2)C1(C#N)C#N (stereo not given) | 142% | 13 µM [rising, partial curve] | 6.51 µM [rising, single point]
COc1ccc(C2=Nn3c(nnc3-c3ccco3)SC2)cc1OC | -23.2% | – | 14.6 µM [falling, partial curve]
Cc1ccc(C(=O)CSC2=C(C#N)C(c3ccco3)C3=C(CC(C)(C)CC3=O)N2)cc1 (stereo not given) | -41.1% | 25.9 µM [falling, partial curve, poor fit] | 16.4 µM [falling, partial curve, poor fit]
COc1ccc(C2=NN(c3nc4ccccc4s3)C(=O)C2)cc1 | -0.691% | – | –
O=C(CSc1nc2ccsc2c(=O)n1-c1ccccc1)N1CCCC1 | 64.2% | 10.3 µM [rising, partial curve, poor fit] | –
Cc1c(Cl)cccc1NC(=O)CC(C(=O)O)C1CCCO1 (stereo not given) | 1.39% | – | 0.184 µM [rising, full curve, poor fit]
CCN(CC1COc2ccccc2O1)C(=S)Nc1ccc(F)cc1 (stereo not given) | -66.7% | 0.164 µM [falling, partial curve, poor fit] | 0.0651 µM [rising, full curve]
COc1ccccc1NC(=O)c1oc2ccc(C)cc2c1C | 18% | 6.51 µM [rising, single point] | –
COc1ccccc1N(CC(=O)Nc1ccc(F)c(F)c1)S(C)(=O)=O | -71% | 32.6 µM [falling, partial curve, poor fit] | –
O=C(N/N=C/c1ccccc1C(=O)O)c1ccc(COc2cccc3cccnc23)cc1 | 32.3% | 9.2 µM [rising, partial curve] | –
CC1=CSC2=NC(=O)/C(=C\c3cccn3-c3ccccc3)C(=N)N12 | 2.66% | – | 1.46 µM [rising, partial curve, poor fit]
O=C(CSc1nc(-c2ccccc2)nc2c1Cc1ccccc1O2)Nc1ccccc1 | 16.3% | – | 0.0058 µM [rising, full curve, poor fit]
CC1CCN(S(=O)(=O)c2ccc3c(c2)c(=O)c(C(=O)NCc2ccccc2Cl)cn3C)CC1 | 3.43% | – | 14.6 µM [rising, partial curve, poor fit]
CC(=O)N1c2ccc(S(=O)(=O)NCCC(=O)NC3CCC(C)CC3)cc2CC1C (stereo not given) | 21.2% | – | 3.66 µM [falling, single point]
O=C1CCC(=O)N1CN(C(=O)c1ccco1)c1ccccc1 | 0.935% | – | 2.91 µM [falling, full curve, poor fit]
CCc1ccc(N2CC(C(=O)Nc3ccccc3F)CC2=O)cc1 (stereo not given) | – | – | 29.1 µM [rising, single point]
Cc1cccc(S(=O)(=O)Nc2cccc(-c3cn4ccsc4n3)c2)c1 | -22.5% | – | 18.4 µM [falling, partial curve, poor fit]
Clc1cccc(Cn2ncc3ccccc32)c1 | 17.7% | 0.58 µM [falling, single point] | –
